One substance from publication PMC9870890 (Nature Communications, 2023) can be followed below.

Amino acid sequences for entries named in this document (tags omitted).
UniProt P08172: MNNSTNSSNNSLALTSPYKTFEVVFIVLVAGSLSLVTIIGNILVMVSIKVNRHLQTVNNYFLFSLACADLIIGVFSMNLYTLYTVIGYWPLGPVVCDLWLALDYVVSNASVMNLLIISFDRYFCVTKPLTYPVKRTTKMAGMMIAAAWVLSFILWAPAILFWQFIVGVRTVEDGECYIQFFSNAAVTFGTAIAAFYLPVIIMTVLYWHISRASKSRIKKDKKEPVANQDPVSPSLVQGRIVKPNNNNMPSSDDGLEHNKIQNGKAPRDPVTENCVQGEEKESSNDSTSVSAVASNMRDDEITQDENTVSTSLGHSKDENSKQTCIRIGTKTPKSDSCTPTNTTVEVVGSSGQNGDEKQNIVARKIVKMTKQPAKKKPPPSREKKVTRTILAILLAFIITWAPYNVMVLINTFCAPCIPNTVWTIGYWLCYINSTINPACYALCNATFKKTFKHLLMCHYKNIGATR
UniProt P32121: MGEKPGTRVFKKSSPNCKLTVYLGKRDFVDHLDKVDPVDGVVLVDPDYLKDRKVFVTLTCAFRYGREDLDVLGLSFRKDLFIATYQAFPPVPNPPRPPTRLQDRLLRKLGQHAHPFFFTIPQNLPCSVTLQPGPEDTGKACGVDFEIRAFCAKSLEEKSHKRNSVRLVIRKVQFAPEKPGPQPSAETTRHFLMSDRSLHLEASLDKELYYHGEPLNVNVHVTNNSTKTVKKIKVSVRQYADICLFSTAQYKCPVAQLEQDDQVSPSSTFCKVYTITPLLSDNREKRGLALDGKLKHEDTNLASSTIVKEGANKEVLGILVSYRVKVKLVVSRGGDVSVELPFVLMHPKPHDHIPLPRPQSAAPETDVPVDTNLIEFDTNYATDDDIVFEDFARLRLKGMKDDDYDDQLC

Results are given in words; binding and its absence hold for the method and conditions named. Binding seen in cells or lysates may run through a third protein. Some entries that bind do so weakly or less than the wild type.

The test deals with flag-tagged M2 receptor carrying the PKA fragment for enzyme complementation (human) (UniProt P08172). Description: split reporter; PathHunter β-galactosidase fragment complementation in HEK293T cells; LY2119620 preincubated 30 min, then ACh or Ixo for 90 min; chemoluminescence.

Consider “β-arrestin-2 (from UniProt P32121 1-409)”, for which the binding result is recorded as “binds”.
